Laboratory results from the supplement of paper PMC3682954.
Counter-ions that a name gives are not always drawn. ± gives the standard deviation of the averaged measurements. This is one part of the list. Repeats are few or missing, and single values can be far off.

Test system: RAW 264.7
Assay: cell viability (MTT) relative to vehicle control; higher = more viable cells
Conditions: stimulus: HMGB1 5 ug/ml, 18 h
[1] = compound concentration: 1 ug/ml

| Structure (SMILES) | cell viability (compound concentration: 3 uM) [%] | cell viability [1] [%] |
| --- | --- | --- |
| CC(=O)Oc1ccc(C(c2ccc(OC(C)=O)cc2)c2ccccn2)cc1 | 106 | – |
| CC(=O)Oc1ccc(C(c2ccc(OC(C)=O)cc2)c2ccccn2)cc1 [Bisacodyl] | 109 ± 1.9 | – |
| CCC(C)(C)C(=O)O[C@H]1C[C@@H](C)C=C2C=C[C@H](C)[C@H](CC[C@@H]3C[C@@H](O)CC(=O)O3)[C@H]21 [Simvastatin] | 113 ± 9.2 | – |
| CCC(C)(C)C(=O)O[C@H]1C[C@@H](C)C=C2C=C[C@H](C)[C@H](CC[C@@H]3C[C@@H](O)CC(=O)O3)[C@H]21 | 96.8 | – |
| C[C@@H]1CN(c2c(F)c(F)c3c(=O)c(C(=O)O)cn(C4CC4)c3c2F)C[C@H](C)N1 | 108 | – |
| COc1cccc(OC)c1OCCNCC1CSc2ccccc2O1 (stereo not given) [Benoxathian hydrochloride] | 96.1 | – |
| CCCCS(=N)(=O)CCC(N)C(=O)O [L-Buthionine-sulfoximine] | 93.8 | – |
| CCCCCCCCCCCCCCCCCCNC(=O)OCC(COP(=O)([O-])OCC[n+]1ccsc1)OC (stereo not given) | 110 | – |
| Nc1ccc(C(=O)O)c(O)c1 | 106 | – |
| Nc1ccc(C(=O)O)c(O)c1 [4-aminosalicylic acid] | 92.4 | – |
| Nc1ccc(C(=O)O)c(O)c1 [4-Aminosalicylic acid] | 95.9 | – |
| O=C1Nc2ccc(Cl)cc2[C@@](C#CC2CC2)(C(F)(F)F)O1 [Efavirenz] | 109 ± 13 | – |
| O=C1Nc2ccc(Cl)cc2[C@@](C#CC2CC2)(C(F)(F)F)O1 | 93.8 | – |
| Clc1ccc(C(c2ccccc2Cl)C(Cl)Cl)cc1 (stereo not given) [1-(2-Chlorophenyl)-1-(4-chlorophenyl)-2,2-dichloroethane] | 102 | – |
| Clc1ccc(C(c2ccccc2Cl)C(Cl)Cl)cc1 (stereo not given) | 106 | – |
| Clc1ccc(C(c2ccccc2Cl)C(Cl)Cl)cc1 (stereo not given) [Mitotane] | 130 | – |
| O=C1O[C@H]([C@@H](O)CO)C(O)=C1O [Ascorbic acid] | 102 | – |
| O=C1O[C@H]([C@@H](O)CO)C(O)=C1O [L(+)-Ascorbic acid] | – | 98.4 |
| O=C1O[C@H]([C@@H](O)CO)C(O)=C1O | 107 ± 11 | – |
| OC[C@H]1O[C@@H](Oc2cccc3cccnc23)[C@H](O)[C@@H](O)[C@@H]1O [8-Hydroxyquinoline beta-D-glucopyranoside] | – | 98.7 |
| CC(=O)Nc1ccc(S(=O)(=O)c2ccc(NC(C)=O)cc2)cc1 | 111 | – |
| OCCc1ccccc1 | 101 | – |
| O=C(c1ccc(F)cc1)C1CCN(CCn2c(=S)[nH]c3ccccc3c2=O)CC1 [Altanserin] | 101 | – |
| O=C(O)c1ccccc1Nc1cccc(C(F)(F)F)c1 | 107 | – |
| O=C(O)c1ccccc1Nc1cccc(C(F)(F)F)c1 [Flufenamic acid] | 99.9 ± 17 | – |

Reprinted from the results shown (two entries):

| Structure (SMILES) | cell viability (compound concentration: 3 uM) [%] | cell viability [1] [%] |
| --- | --- | --- |
| Clc1ccc(C(c2ccccc2Cl)C(Cl)Cl)cc1 (stereo not given) [1-(2-Chlorophenyl)-1-(4-chlorophenyl)-2,2-dichloroethane] | 102 | – |
| Clc1ccc(C(c2ccccc2Cl)C(Cl)Cl)cc1 (stereo not given) | 106 | – |
